We go through 107 sequences from PubChem BioAssay AID1347426 (Functional Genomics Laboratory (NCATS/FGL), 2020).

The whole screen tested about 31,000 sequences, of which about 1,400 (4.5%) were called active.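 Rule for the calls: active = median seed-adjusted z-score above 1 or below -1; inactive = the rest.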 This is one part of the list.

The nature of the test: Novel Modifiers of Survival Motor Neuron (SMN) Protein: Gene Identification via Genome-wide siRNA Screen.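 Note: luminescence tracks full-length SMN protein made from the SMN2 reporter.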 The conditions noted are these: HEK293T SMN2-luciferase reporter, siRNA knockdown, 72 h; actives lie on both sides. The method in brief:
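HEK293T cells stably expressing an SMN2 splicing/cDNA-luciferase reporter were reverse-transfected with a druggable-genome siRNA library and read by luminescence at 72 hours; hits defined by MAD score above 1.0 or below -1.0.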
As to GGCUCAAGUUCAACGAGUUTT against ARL4C, the median seed-adjusted z-score was inactive: -0.61.
For the sequence AGAAGGUUAAUUAUUCUGATT against S100A7L2, the median seed-adjusted z-score was inactive: 0.283.
As for CUGUCUAACUGGAACCGGUTT against APPBP2, the figure is inactive: -0.0432.
Regarding GGAAUGCGAUGUCUCCUUATT against HK3, the median seed-adjusted z-score was inactive: 0.0759.
As for CCACUAUGGUCUUAGUGAATT against SERPINA7, the figure is inactive: 0.0925; as for CGACAGGGUAUCCAACUAATT against WASL, inactive: 0.143; as for GGCUUUUGCGUGGAAUUCATT against ZNF600, inactive: 0.252.
With CAGUACUGCUUAUCAGAGATT against PAH, the median seed-adjusted z-score is inactive: 0.487.
Regarding GCAGUUAUUUCGUCACUGUTT against NDUFA8, the median seed-adjusted z-score was inactive: -0.752.
Turning to CCCUCCCAUUAGUAGCUUUTT against RELT, the median seed-adjusted z-score was inactive: 0.349.
As for GCGACUAUUAUAUCCAGUUTT against LMTK2, the figure is inactive: -0.565; as for GAAUUACCUUUGGAUUCAATT against MORC3, inactive: 0.245; as for CCUUCACAAAGAACCAGAATT against S100A11, inactive: 0.702.
As for GAAUAGACCUCAACUAUCUTT against NIT1, the figure is inactive: -0.528; as for GCAAGCACAUCGUCGUGUATT against CPT1A, inactive: 0.129; as for GAAUAUCCAUGAGAUUUCATT against TIMM9, inactive: -0.371.
In the case of CAGUGGAACUAAAGCCGUUTT against BAT2, the median seed-adjusted z-score was inactive: 0.0889.
As for UUACCAGCCUGAGAACAUATT against TRIM5, the figure is inactive: 0.0758; as for CGUGCAACCCAAAACUACATT against LCN10, inactive: 0; as for CUACCGUUAUGUUUCCCAATT against CDYL, inactive: 0.
With GGAGAUAAACGCAAGGGAATT against BCL2L13, the median seed-adjusted z-score is inactive: 0.311.
The result for CGGUGGAUGUCAAACCCAATT against SALL4 reads inactive: -0.344; that for GGUUAUCCCAAACUGAUUATT against MMP12, inactive: 0.0476; that for GGAGGAAUGUUGGUUCAGATT against DHRS12, inactive: 0.118.
As for GGUAAUGAAUUAAAGAAGATT against CD8A, the figure is inactive: 0.777; as for GCUCAUUCAUUGUUCGAGATT against TNS3, inactive: 0.18.
With GCCCUGACAUUUCCCGAAATT against FOXJ2, the median seed-adjusted z-score is inactive: -0.627.
The result for GCUGCUUGUUAUGAUCCUATT against DBR1 reads inactive: 0.438.
The result for GCGACAAGACGAGCCUUCATT against ISL2 reads inactive: 0.392; that for CACAGACUGUUUUAACUGUTT against PPP1CC, inactive: -0.344.
The result for ACAUCAACAUCAACCCAGATT against YY2 reads inactive: 0.363; that for CCAUCAGCUUUAGGAUAUATT against RTN4, inactive: -0.0191; that for CUUUUACCAUCCACACGAATT against RBP7, inactive: 0.0709.
Consider AGGUGUCGUUUGUAAUUCATT against SEPHS1, for which the median seed-adjusted z-score was inactive: -0.102.
AGGAAACCCUAGACCCAGATT against DHODH: the median seed-adjusted z-score was inactive: -0.422.
The result for GCAUUCACGUAUCCCAGUUTT against ZNF763 reads inactive: 0.236; that for GACAAGUUUGGAAUAAAUUTT against ME3, inactive: 0.166.
For CUUGCGACCUGUCCAAUUATT against CPSF3, the median seed-adjusted z-score is inactive: -0.918.
The result for CGCAAAAGGCUACCACGAATT against CD300LF reads inactive: -0.264.
The result for UAAUGGGAGUUUACCAUGATT against CALML6 reads inactive: 0.0119; that for GGGUUACUGUUUAAGGAAATT against GNG12, inactive: 0.331.
With CAUCAUCUCUUUCAACGUATT against BAZ1A, the median seed-adjusted z-score is inactive: 0.0896.
The result for GCUGCACGAUUAAUGAAGATT against ADAMTS16 reads inactive: -0.133; that for GGAAAAUUAGUAAAGAGCATT against UBP1, inactive: 0.847; that for UGGCUAAGGUUGGACAAUATT against NDUFA11, inactive: -0.722.
As for GGAGUACCUUUCACAUCUATT against ZBTB2, the figure is inactive: 0.217; as for CCAUGUCGCAGAAUGGAUATT against SLC4A11, inactive: -0.18.
The result for GCAGGACCGAAUUCAGCAATT against OTUB1 reads inactive: 0.598; that for CCAUCCAAGCCUACAGUUATT against F11R, inactive: -0.329; that for GGAUAGAUGUUUCUAUCAATT against SUZ12, active: -1.65.
As to CCAUAACAUUCACAAGUGUTT against TRPS1, the median seed-adjusted z-score is inactive: -0.125.
As for GGGAUAAGGUGGUCGCUCUTT against ARFGAP1, the median seed-adjusted z-score is inactive: 0.123.
As for AAAUAUCCUUAGUACAAAATT against NOTCH2NL, the median seed-adjusted z-score is inactive: 0.586.
As to GGAGCCUCUUGGAAGGAGATT against TREM2, the median seed-adjusted z-score is inactive: 0.057.
The result for GGUUUGAGAAGAUCAGCAATT against RRAGA reads inactive: 0.511; that for GCUGGAGACUAUGUGCUAATT against TP53I3, inactive: 0.244; that for CCUUACUCGUCGGAAAUCATT against PRIC285, inactive: 0.
The result for GAUCAAACCUUGUAUCUCUTT against ARG2 reads inactive: -0.796; that for CGACCUCAUUAUCUGGUUUTT against SKIP, inactive: 0.804.
As for GACUCGUGGUUUGAAGUGATT against ZNRF1, the median seed-adjusted z-score is inactive: -0.808.
As to GAGCUGACUUUCUGACCAATT against RAB7A, the median seed-adjusted z-score was inactive: 0.169.
As for GCUGAUACCAGAGCACUGATT against CCR3, the figure is inactive: -0.334; as for GGUGUGGUUUUACUAGAAATT against IRAK4, inactive: -0.288; as for CAACCGCAAUUGGAGUUAUTT against KIF5B, inactive: 0.162.
As for GUACAGAACCUGGAUGAAATT against SYNPO2L, the figure is inactive: -0.47.
The result for CACUGAGGAUGAACGCAAATT against PIP5K3 reads inactive: 0.00523; that for GGAGAUUACGAAAGCCUUUTT against RHOBTB1, inactive: -0.605.
CCUCGAGGAGAUUAACAAATT against NPEPL1: the median seed-adjusted z-score is active: 1.12.
As for CACUGAUACAGGACAUAGATT against SEMA4G, the figure is inactive: 0.188.
As for GUUGUUUACUUUCCACGAATT against KIF2A, the figure is inactive: 0.289; as for CGGGAAAAUUUUGUACUGATT against PROZ, inactive: -0.422.
As for AGAGAAUCUCGAGGAUAUATT against ZNF74, the figure is active: 1.17; as for CGAGGCCUGACAUCACUUATT against CHCHD2, inactive: 0.0884; as for CUACCUCGGCCGAAAGCAATT against FOXB2, inactive: -0.0149.
Consider GAAAUUUGCAGAACCUAGATT against SNX14, for which the median seed-adjusted z-score was inactive: 0.
As for CGAUGUGGAUUGAAGCGCATT against HIPK3, the figure is inactive: -0.00424; as for CGACCAACCCUUACGACUATT against MYH3, inactive: -0.113.
As for GGAAGACUCAUUGAACAUATT against CASP1, the figure is inactive: -0.331; as for AGAUAUGGAUUUUAACAAUTT against CAPNS2, inactive: 0.529.
GACCUAUCGAACUCAGUUATT against SKP2: the median seed-adjusted z-score is inactive: -0.126.
Turning to CCAGUGUGCUCAGACGUAATT against KIF4B, the median seed-adjusted z-score is inactive: -0.0753.
On to GGAGUGGAGCGACUACAAATT against CHRNA2, for which the median seed-adjusted z-score is inactive: -0.513.
As to GAGACUUUAUUGAUGCUUATT against CYP2J2, the median seed-adjusted z-score is inactive: 0.00659.
As for CCCUUACACUAAGCACCAATT against HOXD10, the figure is inactive: -0.374; as for GCUUAUUUAUCGAGUCCGATT against RIT1, inactive: -0.157; as for GGAUGAGAAGAGACGUAGATT against DNMT1, inactive: 0.185.
Turning to CUAACUCAUUUGACCAUAUTT against KIF3B, the median seed-adjusted z-score is inactive: 0.554.
The result for GCAGUAUCAUCGGAAAGAATT against PCBP2 reads inactive: 0; that for GGUUCUCAGGAGCACCAGATT against OASL, active: 1.02.
Turning to GUACUGAUCUUAUUGAACATT against ZNF271, the median seed-adjusted z-score was inactive: 0.484.
The result for UAACUCUGGUUGCACGAAATT against KDSR reads inactive: -0.108.
As for CCCUAAACAUUUUAGAUGATT against PDE7A, the figure is inactive: 0.861.
As for CUUGAACAAGUGUCAAUAATT against COX7A1, the figure is inactive: -0.47.
Regarding GGAUUACAUCCAUCGAGUATT against DDX47, the median seed-adjusted z-score was inactive: -0.398.
For the sequence CCCUUAUGAAUAUAGCUAUTT against ATL3, the median seed-adjusted z-score was inactive: 0.201.
Turning to ACCUGGAUAUCAACCAGUATT against PROM2, the median seed-adjusted z-score is inactive: 0.188.
The result for GACUUACUUAGAUAUGAGATT against ZNF568 reads inactive: 0.501; that for CAGAGCAAGUGGACCUGUATT against MARS, inactive: -0.266; that for GGACCGGAUUUGUUCGGAUTT against UBN1, inactive: 0.0782.
Take CCUAAGAAGCUACAAGUAUTT against PNLIPRP1: the median seed-adjusted z-score was inactive: -0.725.
The result for CAGUGUUAGUGGAUUCAGATT against TMEM87B reads inactive: -0.51; that for CUCAAGAACUGUCAAGUAATT against GSK3B, inactive: -0.952; that for CUGUCCAUCUGGGUCGUGATT against SLC30A2, inactive: -0.402.
As for GGUCAUACCUAUAACUACATT against SLC14A1, the figure is inactive: -0.0585; as for GAAAGACUGUCCAAUCACATT against PHF12, inactive: 0.784; as for CAUUUUCAGUCUUUAGAAATT against RNF34, inactive: -0.0857.
UCAUCGACAUGGUCCUGAATT against PTPRN: the median seed-adjusted z-score was inactive: -0.272.
